Experimental data published in PMC6052468.
For at least one entry, the source does not settle the construct or the ends of the probe. Where cells or extracts were used, other partners may take part. For part of these data: No signal at the amounts used counts as a negative. Protein sequences can lack the tags named with them.

Assays:
[1] = molecular target: T1, Nrf2 (endogenous) (Homo sapiens (human diploid fibroblasts, HDFs)) (UniProt Q16236); experiment: competition EMSA; settings: unlabeled competitor, 5- or 50-fold excess, against biotin GPX7-ARE, Beyotime Chemiluminescent EMSA Kit per manufacturer (binding buffer, salt, pH not stated), antibody pre-incubation 20 min on ice, 5% native PAGE in 0.5x TBE, protein in an extract, label: none (unlabeled competitor)
T1 sequence (looked up, limits assumed): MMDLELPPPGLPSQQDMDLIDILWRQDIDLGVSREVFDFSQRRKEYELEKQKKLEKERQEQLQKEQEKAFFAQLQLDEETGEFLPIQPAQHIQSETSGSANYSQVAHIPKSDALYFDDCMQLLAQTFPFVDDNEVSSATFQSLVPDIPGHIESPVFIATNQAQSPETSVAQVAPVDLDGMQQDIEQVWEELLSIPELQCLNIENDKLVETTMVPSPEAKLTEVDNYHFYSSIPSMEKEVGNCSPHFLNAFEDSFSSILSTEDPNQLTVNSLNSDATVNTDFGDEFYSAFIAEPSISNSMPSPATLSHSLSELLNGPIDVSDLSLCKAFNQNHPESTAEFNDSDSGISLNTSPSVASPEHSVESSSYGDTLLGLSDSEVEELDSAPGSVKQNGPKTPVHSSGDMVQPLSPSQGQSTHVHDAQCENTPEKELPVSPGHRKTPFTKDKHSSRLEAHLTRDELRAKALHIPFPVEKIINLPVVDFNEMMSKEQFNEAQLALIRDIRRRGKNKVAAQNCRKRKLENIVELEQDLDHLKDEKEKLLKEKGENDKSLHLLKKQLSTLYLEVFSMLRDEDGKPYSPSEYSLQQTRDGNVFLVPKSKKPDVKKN

[2] = molecular target: T1, Nrf2 (endogenous) (Homo sapiens (human diploid fibroblasts, HDFs)); experiment: EMSA supershift; settings: anti-Nrf2 antibody, HDF nuclear extract; Beyotime Chemiluminescent EMSA Kit per manufacturer (binding buffer, salt, pH not stated); antibody pre-incubation 20 min on ice; 5% native PAGE in 0.5x TBE; protein in an extract

Question: Does “ACTGAGGGTGACTCAATAAAATC (double strand) [mHO1-ARE (HO-1-mARE)]” bind ([1]; did not abrogate the complex)?
Answer: no binding

Question: Does “CTAGAGAGTGACTTGGCACTCAA (double strand) [GPX7-ARE]” bind [2]?
Answer: binds

Question: Does “ACTGAGGGTGACTCAGCAAAATC (double strand) [HO1-ARE]” bind ([1]; abrogated the complex)?
Answer: binds
